According to PubChem BioAssay AID588497 (NMMLSC, 2011):
The whole screen tested about 360,000 compounds, of which about 780 (0.22%) were called active. The inconclusive results got no clear call from the source; some entries with a clear call stand among them for comparison. Rule as the data show it: active = inhibition above about 35% (passing the limit was not always enough); inconclusive = no clear call, values can overlap the other calls.

tested on: Botulinum neurotoxin type F light chain protease (Clostridium botulinum); assay: BoNT/F light chain protease inhibitors, primary screen, biochemical, flow cytometry, MLPCN library (AID 588497); conditions: Multiplex microsphere protease cleavage assay, at 10 µM, hits give high values; also: plate controls were buffer without enzyme for full effect and enzyme alone for no effect

SMILES	inhibition
Cn1c(=N)c(S(=O)(=O)c2ccccc2)cc2c(=O)n3ccccc3nc21	inconclusive: -8%
CC1CC(c2ccccc2)n2nc(NC(=O)c3ccco3)nc2N1 (stereo not given)	inconclusive: -16.7%
COc1ccccc1N1CCN(C2CCCN(C(=O)CCC(C)=O)C2)CC1 (stereo not given)	inconclusive: 37.2%
CCNc1oc(/C=C/c2ccc(OCC)cc2)nc1C#N	inconclusive: 8.8%
COC(=O)c1ccccc1NCCO	inconclusive: 2.2%
COc1ccc(OC)c(C2C(C(C)=O)=C(C)Nc3ncnn32)c1 (stereo not given)	inconclusive: -3.3%
CCCCNC(=O)c1cccc(S(=O)(=O)N2CC3(C)CC2CC(C)(C)C3)c1 (stereo not given)	inconclusive: -8.8%
CCOC(=O)N1CCN(C(=O)CSC2=NS(=O)(=O)c3ccccc3N2)CC1	inconclusive: -11.3%
Cc1ccccc1CSCC(=O)Nc1ccccc1F	inconclusive: -3.5%
CC(C)Cc1nnc(NC(=O)CCC(=O)Nc2ccccc2F)s1	inconclusive: 22.7%
COc1ccc(C(=O)N2CCN(Cc3ccc(OC)c(OC)c3)CC2)cc1	active: 43.5%
COC(=O)c1cc(C(=O)OCC(=O)c2ccc3c(c2)NC(=O)CO3)cc([N+](=O)[O-])c1	inactive: 2.7%
CC(=O)c1sc2nc(-c3ccco3)ccc2c1N	inconclusive: -10%
O=c1nc(SCc2ccccc2Cl)nc(-c2ccc(Cl)cc2)[nH]1	inconclusive: 6.3%
NNC(=O)c1ccc(COCC(F)(F)C(F)F)cc1	inconclusive: -38.3%
COc1ccc(CCNC(=O)CCC(=O)NC2CCCCC2)cc1OC	inconclusive: 1.5%
CCOC(=O)N1CCN(C(=O)CSc2nnc(-c3cccc(OC)c3)o2)CC1	inconclusive: 21.1%
CCN1CCN(c2ncc(C(=O)N3CCCc4ccccc43)c3ccccc23)CC1	inconclusive: -14.4%
O=C(c1ccc(NC2=NC3CS(=O)(=O)CC3S2)cc1)N1CCN(c2ccc(F)cc2)CC1 (stereo not given)	inactive: -5.9%
O=C(NC(=O)c1ccccc1O)c1ccc2c(c1)CCO2	inconclusive: 13.7%
CCC(=NCc1cc(OC)cc(OC)c1)c1c(O)n(C2CCCCC2)c(=O)[nH]c1=O	inconclusive: 33.2%
CC1(C)CC(=O)C=C(NCCN2CCN(C(=S)Nc3ccc(F)cc3)CC2)C1	inconclusive: -38.4%
S=c1[nH]nc(-c2ccc(Br)cc2)n1-c1ccc(Br)cc1	inconclusive: 46.8%

SMILES	inhibition
Cc1ccc(N2CCCn3c2cc(C)c(C#N)c3=O)cc1Cl	inactive: 6%
COc1ccc(NC(=O)c2ccc[n+]([O-])c2)cc1	inconclusive: 10.1%
COc1ccc2nc(C)cc(SCC(NC(C)=O)C(=O)OC(C)C)c2c1 (stereo not given)	inconclusive: -63%
C1CN(CCN2CCOCC2)CCN1	inconclusive: -2%
CC1(C)CC(=O)C2=C(C1)Nc1ccccc1NC2c1ccccc1F (stereo not given)	inconclusive: -38.1%
Cn1c(SCC(=O)NCc2ccc3c(c2)OCO3)nnc1-c1c[nH]c2ccccc12	inactive: -4.6%
CCCCC(O)(CCCC)C(=O)NN(C(=O)c1cccnc1Cl)c1ccccc1	inconclusive: -119%
CC(=O)Nc1ccc(S(=O)(=O)NCC2(N3CCOCC3)CCCCC2)cc1	inconclusive: 2.5%
COc1ccc(S(=O)(=O)N2CCCC(C(=O)NCc3ccco3)C2)cc1OC (stereo not given)	inactive: -2.9%
CC(C)Oc1cccc(C(=O)C2CCCN(C(=O)CCc3cnn(C)c3)C2)c1 (stereo not given)	inactive: -4.8%
Cc1cc(C)c(S(=O)(=O)Nc2ccc[nH]c2=O)c(C)c1	inconclusive: 28.6%
Cn1nc(C(F)(F)F)c(-c2ccc(F)cc2)c1NC(=O)CSCC(=O)O	inconclusive: 9.1%
COc1ccc(-c2ccc(CN3C(C)C(=O)N(Cc4cn(CCC5OCCO5)nn4)CCS3(=O)=O)cc2)cc1 (stereo not given)	inactive: 5%
Cc1ccc(OCCN(C)C(=O)C2CCC(=O)N(CCCN3CCOCC3)C2)cc1 (stereo not given)	inactive: -4.2%
O=C(O)c1ccc2c(c1)C(=O)N(CCc1ccccc1)C2=O	inconclusive: 16.2%
Cc1cc(C(=O)Nc2ccccc2C(F)(F)F)no1	inactive: -0.1%
CCC(=O)Oc1oc(-c2ccccc2)nc1C=Nc1ccc(C)cc1	inconclusive: 14.4%
Cc1ccc(C(=O)NC2CC3CCCC(C2)N3Cc2ccccc2)cc1 (stereo not given)	inconclusive: -6.2%
COCc1cc(=O)[nH]c(SCCS(=O)(=O)c2ccc(C)cc2)n1	inconclusive: -7.8%
O=C(NCCc1ccc(F)cc1)Nc1ccccc1	inconclusive: 15.1%
COCc1cc(=O)[nH]c(/N=C(\N)Nc2ccc(Cl)c(Cl)c2)n1	inactive: -57%
COc1ccc(NC(=O)Nc2cccc(Cl)c2Cl)c(OC)n1	inconclusive: 27.7%
O=c1c2ccccc2[nH]c(=S)n1Cc1ccccc1	inconclusive: 27.8%

SMILES	inhibition
Cc1ccc(C(=O)c2coc3cc([N+](=O)[O-])c(O)c([N+](=O)[O-])c23)cc1	inactive: 5%
CCOc1ccc(N=CNc2ccc(OCC)cc2)cc1	inconclusive: -12.5%
O=[N+]([O-])c1ccc(N=NNc2ccccc2)cc1	inactive: -26.4%
COc1ccccc1NC(=O)Nc1cc(C(C)C)ccc1C	inconclusive: 10.1%
CCOC(=O)c1c(C)[nH]c(C(=O)OCC(=O)NC(C)(C)C)c1C	inactive: -4.7%
Cc1ccc(C(=O)CC(C(=O)O)n2cncn2)cc1 (stereo not given)	inconclusive: 13.4%
CCC(=O)Nc1ccc(/C=C(\C(C)=O)C(=O)c2ccccc2)cc1	inconclusive: 35.1%
CC(C)(C)NC(=O)CSc1nc(O)cc(=O)[nH]1	inactive: 2.2%
COc1cccc(-c2cc(-c3cccnc3)nc(N)c2C#N)c1	inconclusive: -155%
C/C(=C\c1ccc(Cl)cc1)C(=O)c1c(C)cc(C)[nH]c1=O	inconclusive: 27.4%
Cc1cc(Br)ccc1SCC(=O)NNC(=O)c1ccco1	inconclusive: 0.9%
CCCCN(Cc1cc2cc(OC)ccc2[nH]c1=O)C(=O)c1ccco1	inconclusive: -17.5%
Cc1ccc(C(=O)NNS(=O)(=O)c2ccc(F)cc2)cc1	inconclusive: -8.4%
CCC(Oc1ccc2c(c1)C(=O)CC(C)(C)O2)C(=O)NCCN1CCCCCC1 (stereo not given)	inconclusive: -10.4%
CN(CCOc1ccc(Cl)c(Cl)c1)Cc1ccccc1	inconclusive: -1.1%
CCC(CC)C(=O)Nc1cccc(C(=O)Nc2ccc(S(N)(=O)=O)cc2)c1	inactive: -5%
COc1cccc(/C=N/n2c(-c3cc(C)[nH]n3)n[nH]c2=S)c1	inconclusive: 13.5%
NC(Cc1c[nH]c2ccccc12)C(=O)NCc1ccccc1 (stereo not given)	inconclusive: -0.5%
CCCCCCn1c(SCC(=O)Nc2cc(C)on2)nc2ccccc2c1=O	inactive: -0.8%
COC(=O)C1=CN(CCOC23CC4CC(CC(C4)C2)C3)C=C(C(=O)OC)C1c1ccsc1	inactive: -8.7%
COc1ccc2nc(-c3ccccc3)cc(C(=O)OCC(=O)NC3CC3)c2c1	inactive: -5.7%
CC(=O)N(C)c1ccc(N=Nc2c(C)[nH]n(-c3ccccc3)c2=O)cc1	inconclusive: -35.6%
Oc1cccc(/C=C/c2ccc3cccc(O)c3n2)c1	inconclusive: -50.8%

SMILES	inhibition
CC(=O)c1ccc(N2CCN(C(=O)c3cc(S(=O)(=O)N4CCOCC4)ccc3C)CC2)cc1	inactive: 0.2%
CN(Cc1ccccc1)S(=O)(=O)c1ccc2c(c1)n(C)c(=O)c(=O)n2C	inactive: 3.4%
Cc1ccc(S(=O)(=O)N2CCN(C(=O)c3n[nH]c(=O)c4ccccc34)CC2)c(C)c1	inconclusive: 5.7%
CCOc1cc(C2C3=C(CC(C)(C)CC3=O)N(C)C3=C2C(=O)CC(C)(C)C3)ccc1O	inconclusive: 35.3%
CC(=O)c1cccc(NC(=O)c2cnccn2)c1	inconclusive: -32.5%
O=C(Nc1ccc(F)cc1)c1cccnc1Oc1ccccc1	inconclusive: 17%
O=C(O)C1CCCCC1C(=O)NCCc1cccc(Cl)c1 (stereo not given)	inconclusive: 4.1%
CC(=O)OCC(=O)C1(O)CCC2C3CCC4C(OC(C)=O)C(=O)CCC4(C)C3C(=O)CC21C (stereo not given)	inactive: -7.2%
CNC(=O)Oc1ccc(N(C)C)cc1C(C)C	inconclusive: 19.5%
Cc1nc(C)c(C(=O)O)c(-c2cccs2)c1C(=O)O	inconclusive: -44.2%
CCOc1ccc(NC(=S)Nc2ccc(F)cc2)cc1	inconclusive: -6.2%
COc1cccc(C2/C(=C(\O)c3ccc4c(c3)OCCO4)C(=O)C(=O)N2Cc2cccnc2)c1 (stereo not given)	inactive: -2.1%
c1ccc(-c2[nH]ncc2CN2CCN(Cc3ccc4c(c3)OCO4)CC2)cc1	inconclusive: -18.2%
Cc1c(-c2ccccc2)cnc2c(C)cccc12	inconclusive: -33.1%
Cc1ccc(NC(=O)Cn2c([N+](=O)[O-])cnc2C)cc1	inactive: -3.2%
Cc1ccc(NC(=O)COC(=O)Cc2c[nH]c3ccccc23)cc1C	inconclusive: 0.3%
COc1ccc(/C(O)=C2/C(=O)C(=O)N(c3ccccn3)C2c2ccc(C(C)C)cc2)cc1 (stereo not given)	inconclusive: -15.7%
O=C(CSc1nnc(-c2ccc(Cl)s2)o1)N1CCCc2ccccc21	inconclusive: -34.2%
COc1ccc(S(=O)(=O)N2CCOCC2)cc1NC(=O)c1ccc(OCC(C)C)c(OC)c1	inconclusive: 8.2%
N#CCCN(C(=O)COC(=O)c1ccc2ccccc2n1)c1ccccc1	inconclusive: -6.6%
C[C@H]1C=C(C(=O)NCc2nc3ccccc3[nH]2)O[C@@H](OCc2ccc(CO)cc2)C1	inactive: -3.7%

Seven neighbouring records from above:
SMILES	inhibition
CCOC(=O)c1c(C)[nH]c(C(=O)OCC(=O)NC(C)(C)C)c1C	inactive: -4.7%
Cc1ccc(C(=O)CC(C(=O)O)n2cncn2)cc1 (stereo not given)	inconclusive: 13.4%
CCC(=O)Nc1ccc(/C=C(\C(C)=O)C(=O)c2ccccc2)cc1	inconclusive: 35.1%
CC(C)(C)NC(=O)CSc1nc(O)cc(=O)[nH]1	inactive: 2.2%
COc1cccc(-c2cc(-c3cccnc3)nc(N)c2C#N)c1	inconclusive: -155%
C/C(=C\c1ccc(Cl)cc1)C(=O)c1c(C)cc(C)[nH]c1=O	inconclusive: 27.4%
Cc1cc(Br)ccc1SCC(=O)NNC(=O)c1ccco1	inconclusive: 0.9%

Some of the entries so far, with each value named.
CCN1CCN(c2ncc(C(=O)N3CCCc4ccccc43)c3ccccc23)CC1
  inhibition: inconclusive: -14.4%
O=C(c1ccc(NC2=NC3CS(=O)(=O)CC3S2)cc1)N1CCN(c2ccc(F)cc2)CC1 (stereo not given)
  inhibition: inactive: -5.9%
